Assay results published in the supplement of paper PMC3334620.
The full ranking holds about 33,000 sequences; the median of “E-score (-0.5 to 0.5)” is about -0.0059, and the highest 2% start at about 0.26. The list shows a part of the results.

The sequences below were run against T1, Cin5 (UniProt P40917) (assay: PBM E-score (8-mer binding enrichment) (E-score (-0.5 to 0.5)); higher = stronger / more preferred TF binding). Settings: protein concentration: 100 nM; construct: GST-full length.
T1 sequence: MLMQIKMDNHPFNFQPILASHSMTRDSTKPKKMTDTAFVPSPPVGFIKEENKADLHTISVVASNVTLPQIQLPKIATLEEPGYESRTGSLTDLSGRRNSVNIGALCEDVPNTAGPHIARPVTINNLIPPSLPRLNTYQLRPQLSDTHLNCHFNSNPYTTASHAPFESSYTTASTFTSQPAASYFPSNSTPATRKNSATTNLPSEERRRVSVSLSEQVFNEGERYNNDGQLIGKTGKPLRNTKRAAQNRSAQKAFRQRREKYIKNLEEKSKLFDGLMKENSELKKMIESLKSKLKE
Method in brief: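 Universal all-10-mer Agilent arrays, double-stranded by primer extension on fresh or once-stripped slides, were probed with about 100-200 nM GST-tagged yeast transcription factors made by PURExpress. Fluorescent anti-GST detected bound protein, and masliner normalised the scans. E-scores from the Universal PBM Analysis Suite were given to each ungapped eight-base word pooled with its reverse complement.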
For AGTCTCAC, the “PBM E-score” value was -0.158. In the case of CTGCGTAC, the “PBM E-score” value is reported as -0.204. CTGGCACC was tested, and the “PBM E-score” value was -0.189. For CCCAAGCC, the “PBM E-score” value was -0.166. AATCGATT was tested, and the “PBM E-score” value was 0.166. With CAGCCACA the “PBM E-score” value was 0.027. In the case of CCAGATGA, the “PBM E-score” value is reported as -0.0126. TAGGTCCA was tested, and the “PBM E-score” value was -0.0318. ATTATCAC was tested, and the “PBM E-score” value was 0.234. TATCTTAA was tested, and the “PBM E-score” value was 0.0772. AATACGTA was tested, and the “PBM E-score” value was 0.313. ATAAGGAC was tested, and the “PBM E-score” value was -0.157. In the case of CAACGGTA, the “PBM E-score” value is reported as -0.181. In the case of ACACGTGC, the “PBM E-score” value is reported as -0.113. With ACGGGAGC the “PBM E-score” value was -0.164. CACAGCAG was tested, and the “PBM E-score” value was 0.0514. In the case of TATCGTAA, the “PBM E-score” value is reported as 0.28. For ACCGCGTC, the “PBM E-score” value was -0.0702. In the case of AAAAGCAG, the “PBM E-score” value is reported as -0.0496. With GGTGATAC the “PBM E-score” value was 0.0684. In the case of ATTAGCAA, the “PBM E-score” value is reported as 0.235. In the case of AAAGGTTA, the “PBM E-score” value is reported as -0.0742. ACCGCCGC was tested, and the “PBM E-score” value was -0.101. In the case of CTAACCTC, the “PBM E-score” value is reported as -0.058. With AGGCCCAT the “PBM E-score” value was -0.227. With GAGGCCCC the “PBM E-score” value was -0.302. AAAGGAAC was tested, and the “PBM E-score” value was 0.0182. In the case of GCGCCCAA, the “PBM E-score” value is reported as 0.0114. TCTATAGA was tested, and the “PBM E-score” value was -0.18. In the case of CCGAGAGC, the “PBM E-score” value is reported as -0.207. For GCATGGCA, the “PBM E-score” value was 0.133. For CACCGCAC, the “PBM E-score” value was -0.0813. GCGAAACC was tested, and the “PBM E-score” value was 0.0461. In the case of ACGGGTAA, the “PBM E-score” value is reported as 0.0226. With CAGCTTGG the “PBM E-score” value was 0.188. With CAACTTTA the “PBM E-score” value was 0.131. In the case of GAAACGGC, the “PBM E-score” value is reported as 0.00767. With CCAAGCAC the “PBM E-score” value was 0.00692. In the case of GCCCGAGA, the “PBM E-score” value is reported as -0.00433. In the case of ATATACAA, the “PBM E-score” value is reported as 0.266. With GATCACAA the “PBM E-score” value was 0.17. With TATCAAAA the “PBM E-score” value was 0.166. For ACTACATC, the “PBM E-score” value was 0.111. For CTCGTCAC, the “PBM E-score” value was -0.0121. In the case of GCTAAGCA, the “PBM E-score” value is reported as 0.0676. With CGTTGTAA the “PBM E-score” value was -0.0474. For GTAAGATA, the “PBM E-score” value was 0.12. With ACCCTGGC the “PBM E-score” value was -0.138. For CACATTGA, the “PBM E-score” value was 0.101. With ATATGGTA the “PBM E-score” value was 0.23. AACGTAGT was tested, and the “PBM E-score” value was -0.0268. With GGACGAAC the “PBM E-score” value was -0.0519. With CCGAATAC the “PBM E-score” value was 0.0979. With AAATAATG the “PBM E-score” value was 0.21. For CTCAATTC, the “PBM E-score” value was 0.106. For CTCACGAG, the “PBM E-score” value was -0.0635. In the case of AGAGGTTC, the “PBM E-score” value is reported as 0.0226. For ATCATGCA, the “PBM E-score” value was 0.17. For GGTGTTAA, the “PBM E-score” value was 0.00557. With GCCGGTCA the “PBM E-score” value was -0.087. With CGAGTTAC the “PBM E-score” value was 0.193. For GCGAAACA, the “PBM E-score” value was 0.141. For ACCATTGC, the “PBM E-score” value was 0.0233. GTGGGGAA was tested, and the “PBM E-score” value was 0.152. CCTCTTGA was tested, and the “PBM E-score” value was -0.138. With GGCCTGTA the “PBM E-score” value was -0.124. CTGCGCAC was tested, and the “PBM E-score” value was -0.0989. With AAGGCCAT the “PBM E-score” value was 0.00834. For GTGTGTAA, the “PBM E-score” value was 0.179. For ACGATCGT, the “PBM E-score” value was 0.0139. With AGAACCAC the “PBM E-score” value was -0.0472. For TATCGGGA, the “PBM E-score” value was 0.00638. AGTTAGTG was tested, and the “PBM E-score” value was 0.0937. With AAATAGAT the “PBM E-score” value was 0.297. TGCCAACA was tested, and the “PBM E-score” value was -0.117. For AAACCGTG, the “PBM E-score” value was -0.143. With ACTTTTGG the “PBM E-score” value was 0.164. TATCCATA was tested, and the “PBM E-score” value was 0.203. GCCGCATA was tested, and the “PBM E-score” value was 0.209. For CCTGCAGC, the “PBM E-score” value was -0.0691. In the case of CCGTTACA, the “PBM E-score” value is reported as 0.178. With CGCCACAG the “PBM E-score” value was -0.0874. In the case of TTATAGAA, the “PBM E-score” value is reported as 0.0432. In the case of AGGCCCAA, the “PBM E-score” value is reported as -0.0434. AGCAGTCA was tested, and the “PBM E-score” value was -0.0454. CCGAAATA was tested, and the “PBM E-score” value was 0.209. CCTGTTTC was tested, and the “PBM E-score” value was -0.025. In the case of ATTGAAAG, the “PBM E-score” value is reported as 0.00608. With TGTAGGAA the “PBM E-score” value was -0.139. With ACATCCCT the “PBM E-score” value was 0.0705. ATGTCCTA was tested, and the “PBM E-score” value was -0.0294. With AAATACCG the “PBM E-score” value was 0.012. For AAGAGCTG, the “PBM E-score” value was -0.0813. With CACGTCCC the “PBM E-score” value was -0.197. With AGGTTGAA the “PBM E-score” value was 0.0659. For AACAAGGG, the “PBM E-score” value was -0.184. For ATATTTCA, the “PBM E-score” value was 0.108. In the case of CGCATCAA, the “PBM E-score” value is reported as 0.0722. With AAAATGGT the “PBM E-score” value was 0.216. With AAGATCTG the “PBM E-score” value was 0.0322. With CTCCCAAA the “PBM E-score” value was 0.118. AAACAAAC was tested, and the “PBM E-score” value was 0.037. CATTCCGA was tested, and the “PBM E-score” value was 0.255. In the case of CTGATAGC, the “PBM E-score” value is reported as -0.00917. For GGCTCATA, the “PBM E-score” value was 0.0114. With TACGACGA the “PBM E-score” value was 0.145. In the case of CAAATCAG, the “PBM E-score” value is reported as 0.122. GGGGCCCA was tested, and the “PBM E-score” value was -0.246. For ACCCCAAA, the “PBM E-score” value was 0.11. With CCTAAATA the “PBM E-score” value was -0.0834. AGCACCTC was tested, and the “PBM E-score” value was 0.108. In the case of ACTCAACG, the “PBM E-score” value is reported as -0.0348. With ATAGGTGG the “PBM E-score” value was -0.0698. In the case of ACGGCGCT, the “PBM E-score” value is reported as -0.105. With ACTTAAGG the “PBM E-score” value was -0.0244. For ATTGACCC, the “PBM E-score” value was -0.00345. GTACGCCA was tested, and the “PBM E-score” value was -0.181. CTGACTAC was tested, and the “PBM E-score” value was -0.00132. With ACTAAACG the “PBM E-score” value was 0.06. GAGAGCTA was tested, and the “PBM E-score” value was -0.0372. With AACGACGA the “PBM E-score” value was 0.118. With ACCGTACA the “PBM E-score” value was -0.108. GAAGATGA was tested, and the “PBM E-score” value was -0.0258. In the case of GGAAAGCC, the “PBM E-score” value is reported as 0.111. ATGAATGA was tested, and the “PBM E-score” value was 0.143. In the case of CCCATGAG, the “PBM E-score” value is reported as -0.052. For GTCCCTTA, the “PBM E-score” value was 0.0799. TGGTGCAA was tested, and the “PBM E-score” value was -0.0945. ATTGGCCA was tested, and the “PBM E-score” value was 0.0999. GGAGTATA was tested, and the “PBM E-score” value was 0.0872. In the case of CCGGACAA, the “PBM E-score” value is reported as 0.0257. In the case of AACGCGGC, the “PBM E-score” value is reported as -0.00899. In the case of GACCTCCA, the “PBM E-score” value is reported as -0.0693. With TCCGGCGA the “PBM E-score” value was 0.0986. For GTGATCGA, the “PBM E-score” value was 0.273. With CGGTCTTC the “PBM E-score” value was -0.085. TAGCGGCA was tested, and the “PBM E-score” value was -0.087. GGGAGGAA was tested, and the “PBM E-score” value was -0.0413. With AAACCAGC the “PBM E-score” value was -0.00246. GAAGTGGA was tested, and the “PBM E-score” value was -0.103. For CGATTCCG, the “PBM E-score” value was 0.0417. For CTCGTAGA, the “PBM E-score” value was -0.268. For AGCTTACA, the “PBM E-score” value was 0.351. With AAACTATC the “PBM E-score” value was 0.0759. For GGCCAATA, the “PBM E-score” value was 0.1. With ACATCATC the “PBM E-score” value was 0.344. CTGGGTGC was tested, and the “PBM E-score” value was -0.201. ACCGGCGA was tested, and the “PBM E-score” value was 0.0231. With ATAAGCAC the “PBM E-score” value was 0.175. With CATATAGG the “PBM E-score” value was 0.0225. In the case of TACTGACA, the “PBM E-score” value is reported as 0.148. With CTCTATAA the “PBM E-score” value was 0.0992. ACTGTGAT was tested, and the “PBM E-score” value was 0.0172. In the case of CCGAGGTC, the “PBM E-score” value is reported as -0.109. AAGTAAGC was tested, and the “PBM E-score” value was 0.178. In the case of TCTCCTCA, the “PBM E-score” value is reported as -0.149. In the case of GGAGTCTA, the “PBM E-score” value is reported as -0.18. In the case of ATCCTTAA, the “PBM E-score” value is reported as -0.102. ACCCACGA was tested, and the “PBM E-score” value was -0.0605. In the case of GCCTAAGA, the “PBM E-score” value is reported as -0.214. With GAGTCCGA the “PBM E-score” value was 0.00774. In the case of GTGACTAA, the “PBM E-score” value is reported as 0.123. With GGCGAGTA the “PBM E-score” value was 0.0638. In the case of GAGGCTGA, the “PBM E-score” value is reported as -0.137. In the case of ATATCTCA, the “PBM E-score” value is reported as 0.277. TACGAGTA was tested, and the “PBM E-score” value was 0.0988. For CTCGTCCC, the “PBM E-score” value was -0.119. With CTCCAGCC the “PBM E-score” value was -0.276. With ACCTTTCG the “PBM E-score” value was -0.0242. For ATTATTTG, the “PBM E-score” value was 0.206. In the case of CTTCCCAA, the “PBM E-score” value is reported as -0.123. GTGGGGGA was tested, and the “PBM E-score” value was -0.389.
